Experimental findings from article PMC6143588, “A variant NuRD complex containing PWWP2A/B excludes MBD2/3 to regulate transcription at active genes” (Nature Communications, 2018) are described below.

Results are given in words; binding and its absence hold for the method and conditions named. In cells and extracts the contact can be indirect. A yes stands for co-enrichment or nearness to the bait. Other partners may have been found. For some assays here: Tags and fused reporters may be left off the sequences shown.

One experiment has as its target T1, FS2-PWWP2B (UniProt Q6NUJ5).
T1 sequence: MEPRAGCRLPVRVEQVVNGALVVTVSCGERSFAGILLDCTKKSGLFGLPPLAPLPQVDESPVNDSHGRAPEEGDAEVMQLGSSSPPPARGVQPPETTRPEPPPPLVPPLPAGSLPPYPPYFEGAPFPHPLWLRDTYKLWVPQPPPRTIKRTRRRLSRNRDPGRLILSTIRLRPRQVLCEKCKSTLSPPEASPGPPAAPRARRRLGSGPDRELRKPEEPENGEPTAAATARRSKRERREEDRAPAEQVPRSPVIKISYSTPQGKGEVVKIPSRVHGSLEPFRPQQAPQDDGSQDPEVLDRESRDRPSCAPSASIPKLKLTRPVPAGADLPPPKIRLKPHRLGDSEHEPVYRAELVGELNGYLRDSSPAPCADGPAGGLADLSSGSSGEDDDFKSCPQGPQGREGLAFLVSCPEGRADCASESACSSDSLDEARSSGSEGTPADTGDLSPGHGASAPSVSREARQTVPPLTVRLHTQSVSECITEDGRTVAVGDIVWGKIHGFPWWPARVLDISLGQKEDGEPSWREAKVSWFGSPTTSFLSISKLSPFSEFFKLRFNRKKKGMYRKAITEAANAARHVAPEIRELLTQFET
Put plainly: affinity purification with mass spectrometry; Streptactin agarose purification of the FS2-tagged bait from 15 mg benzonase-treated mESC nuclear extract; washes 8 x 15 min in 500 mM NaCl, 0.2% NP-40; desthiobiotin elution; LC-MS/MS (Mascot, 1% FDR).

In experiment [1] the target is T2, Flag-2xStrepII (FS2) tagged full-length PWWP2A, Q96N64.
T2 chain: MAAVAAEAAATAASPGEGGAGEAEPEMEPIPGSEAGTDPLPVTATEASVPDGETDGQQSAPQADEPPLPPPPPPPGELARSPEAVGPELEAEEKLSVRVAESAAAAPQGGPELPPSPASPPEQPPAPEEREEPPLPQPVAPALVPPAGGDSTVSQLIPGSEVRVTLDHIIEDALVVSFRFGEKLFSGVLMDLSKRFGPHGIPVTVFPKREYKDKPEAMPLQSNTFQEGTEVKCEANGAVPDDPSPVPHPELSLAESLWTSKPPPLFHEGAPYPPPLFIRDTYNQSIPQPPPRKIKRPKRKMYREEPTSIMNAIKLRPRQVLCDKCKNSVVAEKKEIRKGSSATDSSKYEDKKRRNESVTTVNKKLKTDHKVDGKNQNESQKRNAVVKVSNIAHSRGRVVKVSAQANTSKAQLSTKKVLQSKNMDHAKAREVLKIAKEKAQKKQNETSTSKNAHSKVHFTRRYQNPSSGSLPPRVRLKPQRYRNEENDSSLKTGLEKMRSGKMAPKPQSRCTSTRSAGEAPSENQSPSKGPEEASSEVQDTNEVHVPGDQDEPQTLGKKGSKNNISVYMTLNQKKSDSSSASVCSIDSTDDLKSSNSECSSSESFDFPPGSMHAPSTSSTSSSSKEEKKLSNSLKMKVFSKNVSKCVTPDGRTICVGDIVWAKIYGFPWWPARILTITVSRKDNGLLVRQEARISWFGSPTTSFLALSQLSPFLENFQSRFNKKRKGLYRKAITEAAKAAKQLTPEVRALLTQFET
Described as above. To be noted: remark: other sources report otherwise.

B1: PWWP2A co-purified with PWWP2B (protein, UniProt Q69Z61 1-730)
chain: MAAVAAEAAATAASPGEGGAGEAEPELEPIPGSEAGTPLPVTATEAAVPDGEADGRQSAPQADEQPLPPPPPPPPPGELADSSEAEEAKPPEPAAVPVSPPEQPPAAPEQPEDAPRPPPAPALVPPAGGDSAVSHLIPGSEVRVTLDHIIEDALVVSFRLGEKLFSGVLMDLSKRFGPHGIPVTVFPKREYKDKPDAMQLQSTTFQEGIEVKQEVNGAVPDDLSPVPPPERLWASKPPPLFHEGAPYPPPLFIRDTYNQSIPQPPPRKIKRPKRKMYREEPTSIMNAIKLRPRQVLCDKCKNSVVAEKKEIRKGSSDSSRYEDKKRRNDSVATVNKKLKTDHKVDGKNQNESQRRNTVVRVSSIAHSRGRVVKVSAQANTSKAQLNTKKVLQSKNMDHAKAREVLKIAKEKAQKKQSETSTSKTAHAKVHFTRRYQSPSSGSLPPRVRLKPQRYRNEENDSSLKTGLEKIRSGKLAPKPQSRCTSTRSAGEAPSEKPSPSEGPEESAGEVQDTSRVRVPGEQEELRMLGKKGSKSSISVYLTLNQETSDSSSASVCSIDSMDDLKSSNSECSSSESFVFPPGCMHAPSASSTSTSFSSKEENSLRNSLKMKIFSKNVSKCITPDGRTICVGDIVWAKIYGFPWWPARILTITVSRKDNGLLARQEARISWFASPTTSSLALSQLSPFLENFQLRFNKKRKGLYRRAITEAAKAAKQLTPEVRALLTQFET
B1: the binding result with FS2-PWWP2B is recorded as “binds”.

B2: MTA2, endogenous in mESCs, Q9R190 1-668 (protein)
chain: MAANMYRVGDYVYFENSSSNPYLVRRIEELNKTANGNVEAKVVCLFRRRDISSSLNSLADSNAREFEEESKQPGVSEQQRHQLKHRELFLSRQFESLPATHIRGKCSVTLLNETDILNQYLDKEDCFFYSLVFDPVQKTLLADQGEIRVGCKFQAEIPDRLAEGESDNRNQQKMEMKVWDPDNPLTDRQIDQFLVVARAVGTFARALDCSSSIRQPSLHMSAAAASRDITLFHAMDTLQRNGYDLAKAMSTLVPQGGPVLCRDEMEEWSASEAMLFEEALEKYGKDFNDIRQDFLPWKSLASIVQFYYMWKTTDRYIQQKRLKAAEADSKLKQVYIPTYTKPNPNQIISVGSKPGMNGAGFQKGLTCESCHTTQSAQWYAWGPPNMQCRLCASCWIYWKKYGGLKTPTQLEGAARGTTEPHSRGHLSRPEAQSLSPYTTSANRAKLLAKNRQTFLLQTTKLTRLARRMCRDLLQPRRAARRPYAPINANAIKAECSIRLPKAAKTPLKIHPLVRLPLATIVKDLVAQAPLKPKTPRGTKTPINRNQLTQNRGLGGIMVKRSYETMAGAGVPFSANGRPLASGIRSSSQPAAKRQKLNPADAPNPVVFVATKDTRALRKALTHLEMRRAARRPNLPLKVKPTLMTVRPPVPLPASSHPASTNEPIVLED
B2: the binding result in experiment [1] is listed as “binds”.
